Laboratory results: publication PMC12061266
These are yes or no findings as the source states them, for the method shown. In cells and extracts the contact can be indirect. Here binding means that the protein was enriched with, or labelled near, the bait; the list need not be complete. Tags and fused reporters may be left off the sequences shown.

Biological target: T1, Flag-TRAF3IP3 expressed in A549 cells (human) (UniProt Q9Y228)
T1 sequence: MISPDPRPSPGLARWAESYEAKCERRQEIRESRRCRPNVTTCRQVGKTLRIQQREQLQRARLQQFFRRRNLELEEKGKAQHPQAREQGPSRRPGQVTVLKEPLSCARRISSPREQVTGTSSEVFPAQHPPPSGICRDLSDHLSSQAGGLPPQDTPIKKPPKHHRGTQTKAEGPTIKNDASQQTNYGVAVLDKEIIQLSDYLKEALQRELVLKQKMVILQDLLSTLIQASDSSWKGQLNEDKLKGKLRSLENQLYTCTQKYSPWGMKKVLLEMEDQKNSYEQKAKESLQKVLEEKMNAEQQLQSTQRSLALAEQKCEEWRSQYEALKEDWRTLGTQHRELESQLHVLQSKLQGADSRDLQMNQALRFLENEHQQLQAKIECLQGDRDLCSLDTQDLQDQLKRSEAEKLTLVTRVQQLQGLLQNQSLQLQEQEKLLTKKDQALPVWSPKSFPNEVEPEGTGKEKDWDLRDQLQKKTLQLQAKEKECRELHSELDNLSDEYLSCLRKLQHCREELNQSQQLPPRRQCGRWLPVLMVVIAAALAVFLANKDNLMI
Assay: affinity purification with mass spectrometry; anti-Flag IP from A549 cells with Flag-TRAF3IP3 or Flag-vector, two repetitions; SDS-PAGE, in-gel digestion, LC-MS/MS

binding: binds
B1: endogenous STRN3 (protein, UniProt Q13033 1-797)
chain: MDELAGGGGGGPGMAAPPRQQQGPGGNLGLSPGGNGAAGGGGPPASEGAGPAAGPELSRPQQYTIPGILHYIQHEWARFEMERAHWEVERAELQARIAFLQGERKGQENLKKDLVRRIKMLEYALKQERAKYHKLKYGTELNQGDLKMPTFESEETKDTEAPTAPQNSQLTWKQGRQLLRQYLQEVGYTDTILDVRSQRVRSLLGLSNSEPNGSVETKNLEQILNGGESPKQKGQEIKRSSGDVLETFNFLENADDSDEDEENDMIEGIPEGKDKHRMNKHKIGNEGLAADLTDDPDTEEALKEFDFLVTAEDGEGAGEARSSGDGTEWDKDDLSPTAEVWDVDQGLISKLKEQYKKERKGKKGVKRANRTKLYDMIADLGDDELPHIPSGIINQSRSASTRMTDHEGARAEEAEPITFPSGGGKSFIMGSDDVLLSVLGLGDLADLTVTNDADYSYDLPANKDAFRKTWNPKYTLRSHFDGVRALAFHPVEPVLVTASEDHTLKLWNLQKTVPAKKSASLDVEPIYTFRAHIGPVLSLAISSNGEQCFSGGIDATIQWWNMPSPSVDPYDTYEPNVLAGTLVGHTDAVWGLAYSGIKNQLLSCSADGTVRLWNPQEKLPCICTYNGDKKHGIPTSVDFIGCDPAHMVTSFNTGSAVIYDLETSQSLVILSSQVDSGLQSNNHINRVVSHPTLPVTITAHEDRHIKFFDNKTGKMIHSMVAHLDAVTSLAVDPNGIYLMSGSHDCSIRLWNLDSKTCVQEITAHRKKLDESIYDVAFHSSKAYIASAGADALAKVFV
